Measurements from patent US20040014696A1, “Specificity in treatment of diseases” (priority 2003, published 2004).

Experiment: Liver radioactivity estimated from portal vs systemic plasma in portal vein-cannulated monkeys
Format: in vivo

For `N=C(N)c1ncn([C@@H]2O[C@H](CO)[C@@H](O)[C@H]2O)n1` [modified Ribavirin, 1-beta-D-ribofuranosyl-1,2,4-triazole-3-carboxamidine], the “Therapeutic ratio relative to Ribavirin” value (from RBC radioactivity and liver concentration) was “about twelve times that of Ribavirin” and the “Share of the Ribavirin dosage required to achieve the same liver concentration of Ribavirin” value (oral) was “about 66%”.
